Measurements published in publication doi:10.1101/2021.02.19.431861.
These are yes or no findings as the source states them, for the method shown. In cells and extracts the contact can be indirect. Binding can be weak; no strength is given.

The chains behind the UniProt entries cited, without tags or fusion partners. Where a name states a change or a piece, a line headed by the entry shows the natural chain unless it says otherwise.
UniProt Q9BXW4: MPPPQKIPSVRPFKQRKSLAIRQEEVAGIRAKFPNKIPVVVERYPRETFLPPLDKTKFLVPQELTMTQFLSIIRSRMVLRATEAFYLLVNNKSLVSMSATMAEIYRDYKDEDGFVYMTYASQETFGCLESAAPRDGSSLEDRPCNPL
UniProt Q8TDY2: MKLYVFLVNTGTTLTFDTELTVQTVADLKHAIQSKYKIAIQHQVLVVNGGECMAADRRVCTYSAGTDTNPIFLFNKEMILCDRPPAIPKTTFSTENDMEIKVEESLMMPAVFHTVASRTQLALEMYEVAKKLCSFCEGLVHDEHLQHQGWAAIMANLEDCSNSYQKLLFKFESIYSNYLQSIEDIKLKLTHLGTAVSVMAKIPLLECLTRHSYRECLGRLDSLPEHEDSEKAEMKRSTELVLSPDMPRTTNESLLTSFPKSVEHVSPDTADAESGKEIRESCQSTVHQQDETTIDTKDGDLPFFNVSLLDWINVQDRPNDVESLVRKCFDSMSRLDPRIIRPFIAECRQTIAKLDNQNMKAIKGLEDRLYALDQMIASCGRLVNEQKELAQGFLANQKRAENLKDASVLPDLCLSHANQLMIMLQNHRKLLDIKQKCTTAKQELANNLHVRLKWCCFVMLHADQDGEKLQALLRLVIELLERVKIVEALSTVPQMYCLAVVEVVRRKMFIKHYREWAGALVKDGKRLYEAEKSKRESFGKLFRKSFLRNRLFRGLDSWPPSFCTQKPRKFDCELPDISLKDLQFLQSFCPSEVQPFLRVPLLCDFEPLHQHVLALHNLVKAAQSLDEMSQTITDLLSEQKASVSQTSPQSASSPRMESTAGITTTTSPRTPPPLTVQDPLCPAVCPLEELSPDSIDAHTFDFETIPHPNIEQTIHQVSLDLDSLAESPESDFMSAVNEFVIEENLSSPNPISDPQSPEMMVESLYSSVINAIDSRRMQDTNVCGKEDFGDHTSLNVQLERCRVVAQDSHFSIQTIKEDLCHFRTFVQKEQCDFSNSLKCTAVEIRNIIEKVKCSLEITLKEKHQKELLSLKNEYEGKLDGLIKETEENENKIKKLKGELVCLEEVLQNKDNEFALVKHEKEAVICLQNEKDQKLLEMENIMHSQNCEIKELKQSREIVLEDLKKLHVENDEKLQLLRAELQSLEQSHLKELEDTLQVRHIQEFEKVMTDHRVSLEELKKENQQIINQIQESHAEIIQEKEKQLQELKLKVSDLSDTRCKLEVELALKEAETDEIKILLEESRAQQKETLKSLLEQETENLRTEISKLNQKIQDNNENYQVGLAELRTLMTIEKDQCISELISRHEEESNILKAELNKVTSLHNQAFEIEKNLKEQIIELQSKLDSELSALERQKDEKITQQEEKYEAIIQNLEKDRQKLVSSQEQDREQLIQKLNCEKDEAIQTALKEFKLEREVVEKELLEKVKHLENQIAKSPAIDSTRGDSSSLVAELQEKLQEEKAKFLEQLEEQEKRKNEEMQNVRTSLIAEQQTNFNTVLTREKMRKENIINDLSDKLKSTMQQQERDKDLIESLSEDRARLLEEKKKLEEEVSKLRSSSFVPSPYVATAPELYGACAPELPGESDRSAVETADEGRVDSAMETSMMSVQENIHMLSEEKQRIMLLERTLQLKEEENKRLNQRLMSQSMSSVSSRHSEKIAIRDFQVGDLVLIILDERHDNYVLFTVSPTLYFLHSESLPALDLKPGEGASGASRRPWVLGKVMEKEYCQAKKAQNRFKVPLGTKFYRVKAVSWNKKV
UniProt O00443: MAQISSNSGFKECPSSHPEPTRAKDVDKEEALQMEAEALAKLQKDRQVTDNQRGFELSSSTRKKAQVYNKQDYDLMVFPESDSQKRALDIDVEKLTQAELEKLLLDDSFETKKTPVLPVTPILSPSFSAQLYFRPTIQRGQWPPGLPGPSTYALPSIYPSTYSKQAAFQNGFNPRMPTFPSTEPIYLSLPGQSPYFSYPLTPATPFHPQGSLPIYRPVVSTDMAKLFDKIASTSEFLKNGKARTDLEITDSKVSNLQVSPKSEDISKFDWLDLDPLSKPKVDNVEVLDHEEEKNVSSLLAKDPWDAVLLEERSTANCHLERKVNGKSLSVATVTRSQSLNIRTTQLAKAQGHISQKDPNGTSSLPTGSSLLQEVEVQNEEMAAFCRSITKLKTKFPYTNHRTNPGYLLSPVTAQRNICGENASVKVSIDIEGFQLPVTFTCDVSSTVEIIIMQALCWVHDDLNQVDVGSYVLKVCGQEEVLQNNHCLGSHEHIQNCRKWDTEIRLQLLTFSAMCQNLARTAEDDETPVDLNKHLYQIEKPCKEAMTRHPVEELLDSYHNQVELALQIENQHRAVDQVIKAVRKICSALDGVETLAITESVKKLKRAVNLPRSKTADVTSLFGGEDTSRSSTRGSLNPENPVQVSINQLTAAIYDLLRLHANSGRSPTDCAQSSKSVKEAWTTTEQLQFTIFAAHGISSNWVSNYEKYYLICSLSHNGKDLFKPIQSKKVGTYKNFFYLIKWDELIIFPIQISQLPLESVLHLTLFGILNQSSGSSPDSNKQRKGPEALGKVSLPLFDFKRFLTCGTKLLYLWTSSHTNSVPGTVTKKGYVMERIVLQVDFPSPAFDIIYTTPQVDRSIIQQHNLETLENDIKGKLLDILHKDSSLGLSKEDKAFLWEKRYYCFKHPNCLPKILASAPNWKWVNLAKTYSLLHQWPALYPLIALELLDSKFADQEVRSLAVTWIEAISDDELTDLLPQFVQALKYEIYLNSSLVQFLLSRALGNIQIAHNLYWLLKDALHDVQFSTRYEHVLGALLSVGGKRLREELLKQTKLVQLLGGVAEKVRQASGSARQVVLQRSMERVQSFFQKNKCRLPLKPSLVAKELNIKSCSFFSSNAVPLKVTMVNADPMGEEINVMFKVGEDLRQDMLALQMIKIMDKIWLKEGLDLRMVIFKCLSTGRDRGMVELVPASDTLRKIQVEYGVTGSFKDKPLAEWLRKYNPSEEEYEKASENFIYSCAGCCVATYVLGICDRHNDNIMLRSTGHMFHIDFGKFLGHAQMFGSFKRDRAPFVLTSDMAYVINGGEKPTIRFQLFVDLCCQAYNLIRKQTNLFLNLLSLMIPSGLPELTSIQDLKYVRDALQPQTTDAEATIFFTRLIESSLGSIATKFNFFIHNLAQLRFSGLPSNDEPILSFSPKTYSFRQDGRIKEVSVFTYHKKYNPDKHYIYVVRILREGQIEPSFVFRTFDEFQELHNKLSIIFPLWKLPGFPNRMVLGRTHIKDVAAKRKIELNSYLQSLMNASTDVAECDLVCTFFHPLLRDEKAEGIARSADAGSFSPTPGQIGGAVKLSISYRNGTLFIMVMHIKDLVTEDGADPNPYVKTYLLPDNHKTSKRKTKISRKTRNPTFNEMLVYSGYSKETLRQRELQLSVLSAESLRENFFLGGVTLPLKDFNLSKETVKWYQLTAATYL
UniProt Q14457: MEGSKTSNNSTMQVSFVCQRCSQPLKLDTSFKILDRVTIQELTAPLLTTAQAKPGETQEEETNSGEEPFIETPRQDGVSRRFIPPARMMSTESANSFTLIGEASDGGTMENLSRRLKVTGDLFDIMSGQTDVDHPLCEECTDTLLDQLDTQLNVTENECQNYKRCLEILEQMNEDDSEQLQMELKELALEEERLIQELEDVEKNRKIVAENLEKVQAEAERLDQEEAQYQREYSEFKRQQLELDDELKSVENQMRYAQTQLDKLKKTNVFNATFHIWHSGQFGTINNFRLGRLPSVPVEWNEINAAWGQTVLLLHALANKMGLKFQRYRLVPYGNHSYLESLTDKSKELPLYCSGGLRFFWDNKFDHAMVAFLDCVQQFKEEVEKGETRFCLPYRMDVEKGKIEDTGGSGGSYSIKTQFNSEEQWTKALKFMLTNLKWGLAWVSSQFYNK

biological target: LC3C G126A mutant (UniProt Q9BXW4); experiment: co-IP

binding	Molecule
binds	FIP200 (endogenous) (from UniProt Q8TDY2 1-1594)
binds	PIK3C2A (endogenous) (from UniProt O00443 1-1686)
binds	RUBCN (endogenous) (protein, UniProt Q92622 1-972) MRPEGAGMELGGGEERLPEESRREHWQLLGNLKTTVEGLVSTNSPNVWSKYGGLERLCRDMQSILYHGLIRDQACRRQTDYWQFVKDIRWLSPHSALHVEKFISVHENDQSSADGASERAVAELWLQHSLQYHCLSAQLRPLLGDRQYIRKFYTDAAFLLSDAHVTAMLQCLEAVEQNNPRLLAQIDASMFARKHESPLLVTKSQSLTALPSSTYTPPNSYAQHSYFGSFSSLHQSVPNNGSERRSTSFPLSGPPRKPQESRGHVSPAEDQTIQAPPVSVSALARDSPLTPNEMSSSTLTSPIEASWVSSQNDSPGDASEGPEYLAIGNLDPRGRTASCQSHSSNAESSSSNLFSSSSSQKPDSAASSLGDQEGGGESQLSSVLRRSSFSEGQTLTVTSGAKKSHIRSHSDTSIASRGAPESCNDKAKLRGPLPYSGQSSEVSTPSSLYMEYEGGRYLCSGEGMFRRPSEGQSLISYLSEQDFGSCADLEKENAHFSISESLIAAIELMKCNMMSQCLEEEEVEEEDSDREIQELKQKIRLRRQQIRTKNLLPMYQEAEHGSFRVTSSSSQFSSRDSAQLSDSGSADEVDEFEIQDADIRRNTASSSKSFVSSQSFSHCFLHSTSAEAVAMGLLKQFEGMQLPAASELEWLVPEHDAPQKLLPIPDSLPISPDDGQHADIYKLRIRVRGNLEWAPPRPQIIFNVHPAPTRKIAVAKQNYRCAGCGIRTDPDYIKRLRYCEYLGKYFCQCCHENAQMAIPSRVLRKWDFSKYYVSNFSKDLLIKIWNDPLFNVQDINSALYRKVKLLNQVRLLRVQLCHMKNMFKTCRLAKELLDSFDTVPGHLTEDLHLYSLNDLTATRKGELGPRLAELTRAGATHVERCMLCQAKGFICEFCQNEDDIIFPFELHKCRTCEECKACYHKACFKSGSCPRCERLQARREALARQSLESYLSDYEEEPAEALALEAAVLEAT
binds	ULK3 (endogenous) (protein, UniProt Q6PHR2 1-472) MAGPGWGPPRLDGFILTERLGSGTYATVYKAYAKKDTREVVAIKCVAKKSLNKASVENLLTEIEILKGIRHPHIVQLKDFQWDSDNIYLIMEFCAGGDLSRFIHTRRILPEKVARVFMQQLASALQFLHERNISHLDLKPQNILLSSLEKPHLKLADFGFAQHMSPWDEKHVLRGSPLYMAPEMVCQRQYDARVDLWSMGVILYEALFGQPPFASRSFSELEEKIRSNRVIELPLRPLLSRDCRDLLQRLLERDPSRRISFQDFFAHPWVDLEHMPSGESLGRATALVVQAVKKDQEGDSAAALSLYCKALDFFVPALHYEVDAQRKEAIKAKVGQYVSRAEELKAIVSSSNQALLRQGTSARDLLREMARDKPRLLAALEVASAAMAKEEAAGGEQDALDLYQHSLGELLLLLAAEPPGRRRELLHTEVQNLMARAEYLKEQVKMRESRWEADTLDKEGLSESVRSSCTLQ

biological target: FLAG-tagged LC3C wild type (UniProt Q9BXW4); experiment: co-IP

binding	Molecule
binds	BECN1 (endogenous) (from UniProt Q14457 1-450)
binds	FIP200 (endogenous) (from UniProt Q8TDY2 1-1594)
